Data on 62 compounds can be found in PubChem BioAssay AID2685 (National Center for Advancing Translational Sciences (NCATS), 2010).

The list shows a part of the results. Further columns of the screen follow, without active or inactive calls. Compounds called inactive in the main read-out are mostly missing here. The note in brackets gives the kind of curve behind each potency; many fits are weak.

The experiment can be described thus: qHTS Assay for Lipid Storage Modulators in Drosophila S3 Cells.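 On cell number change: cells counted by Cell Tracker Red CMTPX staining in the red channel.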 The conditions noted are these: BODIPY lipid droplet fluorescence, 18-24 h; for cell number change: measured here: cell count max response, cells fed with added oleic acid. Put shortly:
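Drosophila S3 cells got compounds at several concentrations plus oleic acid (400 uM solution). Laser-scanning cytometry with 488 nm excitation read lipid droplets at 500-530 nm and cells at 575-640 nm. Percent activity was relative to 20 uM Triacsin C.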

The mark [1] stands for this setting: measured here: lipid fluorescence (Fed channel) AC50, cells fed with added oleic acid.
Setting [2] is: measured here: cell number channel AC50, cells fed with added oleic acid.

With `CCOc1ccc(OCCC(=O)NNC(=O)c2cc(C)oc2C)cc1`, the cell number change was -12%. Besides, the AC50 under setting [1] was 0.00461 µM [rising, full curve, poor fit].
As for `Cc1cc(Cl)cc(Cl)c1OCCCCN(C)C`, the cell number change came out at 13.7%. Besides, under setting [1], the AC50 is 2.06 µM [rising, full curve].
Turning to `O=S(=O)(NCc1cccs1)c1cccc2cccnc12`, the AC50 under setting [1] was 0.092 µM [falling, full curve, poor fit].
As for `Cc1cc(C(=O)N/N=C/c2cccc(OC(=O)c3cccc(Br)c3)c2)n[nH]1`, the cell number change is -21%. The AC50 under setting [1] is 6.51 µM [rising, single point].
Turning to `c1ccc(Nc2nnc(-c3cccc4ccccc34)o2)cc1`, the cell number change stood at 5.58%. The AC50 under setting [1] is 7.31 µM [rising, single point].
For the compound `COC(=O)c1cc(C)nc(N)c1C#N`, the cell number change is -62.1%. Besides, the AC50 under setting [2] is 29.1 µM [falling, single point]. The AC50 under setting [1] was 0.82 µM [falling, full curve, poor fit].
As for `Cc1cccnc1NC(=O)CCNC(=O)c1ccc(Br)cc1`, the cell number change was -2.27%.
For the compound `COc1ccc(CN2CCNC(=O)C2CC(=O)NCc2ccc(C)s2)c(OC)c1` (stereo not drawn), the cell number change was -5.13%. Besides, the AC50 under setting [2] is 0.651 µM [falling, single point]. For the same compound, under setting [1], the AC50 is 0.461 µM [falling, partial curve, poor fit].
As for `COc1ccc(/C=N/NC(=O)CCCC(=O)NC2CCCCC2)cc1`, the cell number change was -11.2%. The AC50 under setting [1] was 0.731 µM [rising, full curve, poor fit].
Turning to `COc1ccc(C2(CCN)CC(C)N(C)CC2C)cc1` (stereo not drawn), the cell number change was determined as 4.79%. Moreover, the AC50 under setting [1] was 20.6 µM [rising, partial curve, poor fit].
Regarding `C/C(=N\NC(=O)c1cccc(Br)c1)c1ccc(Br)cc1`, the cell number change is 18.7%.
For the compound `CC(C)NC(=O)CSc1nc(Cc2ccccc2)nc2ccccc12`, the cell number change was -8.8%. The AC50 under setting [1] is 0.116 µM [rising, full curve, poor fit].
As for `COc1cc(-n2c(C)nc3cc(C(=O)NCCN4CCOCC4)ccc32)cc(OC)c1OC`, the cell number change was 3.49%. Further, the AC50 under setting [2] is 0.651 µM [falling, single point].
Turning to `COc1cccc(NC(=S)N2c3ccccc3CC2C)c1` (stereo not drawn), the cell number change is -31.2%. Further, under setting [2], the AC50 was 8.2 µM [falling, single point].
Turning to `CC(=O)n1cc(N(C(=O)CCl)c2ccc([N+](=O)[O-])cc2)c2ccccc21`, the cell number change is -31.4%. Also, the AC50 under setting [2] was 20.6 µM [falling, single point]. The AC50 under setting [1] is 29.1 µM [falling, single point].
With `O=C1NC2(CCCCC2)N=C1c1ccc(F)cc1`, the cell number change was found to be 13.3%. Also, the AC50 under setting [1] is 0.58 µM [falling, full curve].
As for `COC(=O)c1ccc(C(=O)OC)c(NC(=S)N2CCCC2)c1`, the cell number change stood at 29.1%. For the same compound, the AC50 under setting [1] was 0.58 µM [rising, partial curve].
Turning to `CN1CCN(CC(=O)Nc2ccc([N+](=O)[O-])cc2Br)CC1`, the cell number change is 17%. In addition, under setting [1], the AC50 was 35.5 µM [rising, single point].
Consider `CC12CN3CC(C)(CN(C1)C3c1cc(Br)ccc1O)C2=O` (stereo not drawn), for which the cell number change stood at 7.34%. Besides, under setting [1], the concentration at half-maximal activity (AC50) was 6.51 µM [rising, full curve].
For `CCOC(=O)CNC(=O)C1CCN(S(=O)(=O)c2ccc(-c3nn[nH]n3)cc2)CC1`, the cell number change came out at 17.5%. Also, the AC50 under setting [1] is 29.1 µM [rising, single point].
As for `COc1ccc(C)cc1NC(=O)CN1C(=O)c2ccccc2S1(=O)=O`, the cell number change is -1.29%. Besides, the AC50 under setting [1] is 4.11 µM [rising, single point].
As for `Cn1nnnc1SCC(=O)N1CCc2ccccc2C1`, the cell number change turned out to be 0.559%. Moreover, the AC50 under setting [1] is 0.206 µM [falling, full curve, poor fit].
`C=CCNc1oc(-c2cccs2)nc1C#N`: the cell number change came out at 33%. For the same compound, the AC50 under setting [2] is 29.1 µM [rising, single point]. Besides, the AC50 under setting [1] is 29.1 µM [rising, single point].
`CCC(C(=O)NC1CCCC1)N(C(=O)Cn1nnc(-c2ccc(C)o2)n1)c1ccc(OC)cc1` (stereo not drawn): the cell number change was found to be 10%.
For `CC(C)CC(NC(=O)CCl)c1ccccc1` (stereo not drawn), under setting [1], the AC50 is 2.91 µM [falling, full curve].
As for `COc1ccc(C2=NOC(C(=O)NC(C)(C)C)C2)cc1` (stereo not drawn), the cell number change worked out at 40.6%. In addition, the AC50 under setting [2] was 2.31 µM [rising, full curve].
As to `Cc1ccccc1C(=O)NC1CCN(C(=O)NCc2ccccc2)CC1`, the cell number change was -0.901%.
`Cc1onc(-c2ccccc2Cl)c1C(=O)NCCN1CCOCC1`: the cell number change amounted to 10.9%. The AC50 under setting [2] is 0.326 µM [rising, full curve].
Regarding `COc1cc(NC(=O)c2ccccc2)c(OC)cc1NC(=O)CN1CCOCC1`, the cell number change was 15.2%. For the same compound, the AC50 under setting [2] is 0.00411 µM [rising, full curve, poor fit].
In the case of `O=C(NCC1CCCO1)c1cc2c([nH]c3ccccc32)c(-c2ccc(F)cc2)n1` (stereo not drawn), the cell number change was -16.6%. Besides, the AC50 under setting [1] was 29.1 µM [falling, single point].
Consider `CC(=O)Nc1ccc(S(=O)(=O)N2CCN(Cc3cccnc3)CC2)cc1`, for which, under setting [1], the AC50 is 6.51 µM [falling, single point].
As to `CCOc1cc(/C=C2/NC(=S)NC2=O)ccc1OCc1ccc([N+](=O)[O-])cc1`, the cell number change is -94.2%. Moreover, the AC50 under setting [1] was 23.1 µM [falling, single point].
Regarding `CCS(=O)(=O)c1ccc2oc(SCC(=O)NC34CC5CC(CC(C5)C3)C4)nc2c1`, the cell number change is 74.2%. The AC50 under setting [2] is 7.31 µM [rising, full curve].
Take `COCCNC(=O)CSc1nc2cc3c(cc2c(=O)n1Cc1ccco1)OCO3`: the cell number change was 3.16%. Further, the AC50 under setting [1] is 0.206 µM [rising, single point].
As to `C=CCOC(=O)C1=C(C)NC(C)=C(C(=O)OCC=C)C1/C=C/c1ccccc1`, the cell number change is -46.7%. Also, the AC50 under setting [2] was 16.4 µM [falling, single point]. In addition, the concentration at half-maximal activity (AC50) under setting [1] is 18.4 µM [falling, single point].
Regarding `O=C1c2ccccc2C(=O)N1c1cc([N+](=O)[O-])ccn1`, the cell number change was determined as 4.74%.
With `COc1ccc(CNC(=O)CNC(c2ccccc2)c2ccccc2)cc1OC`, the cell number change stood at 18.8%.
For the compound `CCOc1ccc(NC(=O)CCC(=O)c2ccc(F)cc2)cc1`, the cell number change amounted to 11%. Further, the AC50 under setting [1] was 3.66 µM [rising, full curve].
For `CCOC(=O)c1cccc2c(=O)c(C(=O)c3ccc(Cl)cc3)c(C(=O)OC)[nH]c12`, the cell number change is -15.2%.
With `C/C(=N/NC(=O)CNc1ccc(C)cc1)c1ccc(Cl)cc1`, the AC50 reads like this: under setting [2], 2.91 µM [rising, single point]; under setting [1], 3.66 µM [rising, partial curve].
Take `NC1=NC(=Nc2cccc(S(=O)(=O)N3CCOCC3)c2)c2ccccc21`: the cell number change was 21.9%.
Take `Cc1cccc(C)c1NC(=O)CNC(=O)c1ccc2ccccc2n1`: the cell number change is -7.5%. The AC50 under setting [1] was 0.058 µM [rising, full curve, poor fit].
For the compound `C/C(=N\NC(=S)NCc1ccccc1)c1ccc(Cl)s1`, the cell number change amounted to 51.5%.
For `O=c1cnnc(NCc2ccccc2)[nH]1`, the cell number change turned out to be 13.4%.
Turning to `CCCCn1c(=O)[nH]c(=O)c2c1nc(-c1ccncc1)n2CCOC`, the AC50 under setting [2] was 2.31 µM [rising, partial curve].
As for `COc1ccc(N2CCN(S(=O)(=O)c3ccc4c(c3)N(C(C)=O)CCO4)CC2)cc1`, the AC50 under setting [1] is 6.51 µM [rising, single point].
Turning to `COc1ccc(CCNC(=O)CCc2ccc(S(=O)(=O)NC(C)C)cc2)cc1OC`, the cell number change is 0.74%. Besides, the AC50 under setting [1] is 0.651 µM [falling, full curve, poor fit].
With `Cc1ccccc1C(=O)c1cccn1CC(=O)NCCN1CCN(c2cccc(C)c2C)CC1`, the cell number change is -64.1%. The AC50 under setting [2] was 29.1 µM [falling, single point].
As to `COc1ccc(S(=O)(=O)N2CCOCC2)cc1NC(=O)CSc1nnc2ccccn12`, the cell number change is 5.28%.
For the compound `N#Cc1ccc(OCc2nnc(-c3ccc([N+](=O)[O-])cc3)o2)cc1`, the cell number change worked out at 102%. Under setting [1], the AC50 is 23.1 µM [rising, partial curve, poor fit].
For the compound `CC1=C(C(=O)Nc2ccc(C)cn2)C(c2cnn(C)c2)C2=C(CCCC2=O)N1` (stereo not drawn), the cell number change amounted to 26.5%. The AC50 under setting [1] is 14.6 µM [rising, partial curve, poor fit].
For `COC(=O)C1CCN(C(=O)/C=C/c2ccccc2)CC1`, the cell number change came to 2.87%. The AC50 under setting [1] was 13 µM [rising, single point].
As to `Cc1ccc(/C(C#N)=C\c2ccc(N3CCOCC3)o2)cc1`, the cell number change was -145%. Further, the AC50 under setting [2] was 18.4 µM [falling, single point]. Besides, the AC50 under setting [1] was 29.1 µM [falling, single point].
Regarding `C#CCOCCOCCOCCNc1nc(N2CCN(C(=O)CCCCCCCCCCNC(=O)Cn3cc(C[C@@H](C)O)nn3)CC2)nc(N2CCN(C(=O)CCCCCCCCCCNC(=O)[C@H](CCCN=C(N)N)n3cc(C[C@@H](C)CC)nn3)CC2)n1`, the cell number change was -37.7%. For the same compound, the AC50 under setting [2] was 29.1 µM [falling, single point]. Further, the AC50 under setting [1] is 29.1 µM [falling, single point].
As to `CCOP(=O)(OCC)c1nc(-c2ccc(Cl)cc2Cl)oc1N1CCOCC1`, the AC50 under setting [1] is 7.31 µM [rising, single point].
For `COc1ccc(-c2cc3c(=O)n(CC(=O)N4CCCC4)ncn3n2)cc1`, the cell number change came to 18.3%. Further, the AC50 under setting [1] was 9.2 µM [falling, single point].
For `O=S(=O)(c1ccc(NC(=S)NCc2ccc(F)cc2)cc1)N1CCOCC1`, under setting [1], the AC50 is 29.1 µM [falling, single point].
Consider `Cn1c(COc2ccccc2)nnc1SCC(=O)Nc1ccc(S(N)(=O)=O)cc1`, for which the cell number change stood at 63.8%. The AC50 under setting [2] is 18.4 µM [rising, partial curve].
Take `COc1ccc(C(=O)/C=C/c2cc(OC)c(O)c(OC)c2)c(F)c1`: the cell number change was -69.8%. Also, the AC50 under setting [2] is 0.164 µM [falling, partial curve, poor fit]. The AC50 under setting [1] was 25.9 µM [falling, partial curve].
Consider `CCCCN(Cc1cccs1)S(=O)(=O)c1ccc(-c2ccc(=O)[nH]n2)s1`, for which the cell number change was -11%. Also, the AC50 under setting [1] is 29.1 µM [falling, single point].
In the case of `COc1ccc(-c2noc(CN(C)C(=O)c3ccoc3C)n2)cc1OC`, the cell number change amounted to 28.3%. Also, under setting [1], the AC50 was 4.11 µM [rising, partial curve].
Take `COc1ccccc1C(=O)n1nc(-c2ccccc2)nc1NCc1ccco1`: the cell number change was found to be 29%.

A word on the AC50: it is the concentration giving half of the maximal activity seen. Higher therefore signals activity only at high concentration.
